Source: PubChem BioAssay AID590 (National Center for Advancing Translational Sciences (NCATS), 2007)
The campaign covered roughly 59,000 compounds. About 6,500 (11%) were called active. This list was built around the results that the source calls inconclusive (neither active nor inactive); the mix of calls is not that of the screen. No stated cut-off is given here; in the data, active means max dye-equivalent concentration above about 10 nM; inconclusive means mostly about 1.1 nM to 9.6 nM; inactive means weaker than that.

Test: qHTS Assay for Spectroscopic Profiling in A350 Spectral Region
Conditions: Compound autofluorescence, 340/450 nm, Alexa 350 dye-equivalents; hits give high values

SMILES | max dye-equivalent concentration
CCOc1ccccc1-c1nnc(SCC(=O)Nc2ccccc2)o1 | inactive
COc1ccccc1NC=C1C(=O)OC2(CCCCC2)OC1=O | inconclusive: 6.8 nM
CCOc1ccccc1CNC(=O)C1CCC(=O)N1C(C)C (stereo unspecified) | inconclusive: 3.9 nM
O=C(O)C1C2C=CC3(CN(Cc4ccncc4)C(=O)C13)O2 (stereo unspecified) | inconclusive: 1.6 nM
CCOc1ccc(-c2cn(CCC#N)cn2)cc1 | inactive
Cc1nc(N2CCN(Cc3ccccc3)CC2)nc2c1C(=O)CC(c1ccco1)C2 (stereo unspecified) | inactive
COc1ccc2[nH]cc(C(=O)CN(C)CCc3ccc(OC)c(OC)c3)c2c1 | inconclusive: 1.1 nM
O=c1[nH]c(CN2CCN(CCO)CC2)nc2ccccc12 | inconclusive: 2.7 nM
CN(C)CCCN=c1c2ccccc2n(C)c2[nH]c(=O)n(C)c(=O)c12 | active: 27 nM
CCSc1nnc(NC(=O)c2nn(C(C)C)c(=O)c3ccccc23)s1 | inconclusive: 1.5 nM
CCC(O)c1cc2c(cc1NC(=O)c1cccs1)OCCO2 (stereo unspecified) | active: 160 nM
CCOC(=O)c1csc(NC(=O)CSc2nnnn2-c2ccc(OCC)cc2)n1 | inactive
CC(=O)C(Sc1nn(C)c(=S)s1)C(=O)Nc1ccccc1 (stereo unspecified) | inactive
C=CCn1c(SC/C=C/c2ccccc2)nnc1-c1sc(N)nc1C | inconclusive: 3.8 nM
CC(=O)N=c1ncn(CC(COC(C)=O)OC(C)=O)c2nc[nH]c12 (stereo unspecified) | inactive
COc1ccc(N(Cc2cc3ccc(C)cc3[nH]c2=O)C(=O)c2ccco2)cc1 | inconclusive: 6.6 nM
COc1cccc(Cn2c(=O)c(-c3cn(C)c4ccccc34)nc3cnc(OC)nc32)c1 | inconclusive: 8.8 nM
Cc1ccccc1-c1nc(NC2CCNCC2)c2ccccc2n1 | inactive
COc1ccc(Cn2c(CCC(=O)Nc3ccc(CC#N)cc3)nc3cccnc32)cc1 | inconclusive: 1.2 nM
CCN(CC)CCOC(=O)c1c(C)oc2ccc(O)cc12 | inactive
CCN(CC)CCN1C(=O)C(=O)/C(=C(/O)c2cccc(OC)c2)C1c1ccccn1 (stereo unspecified) | inconclusive: 2.5 nM

SMILES | max dye-equivalent concentration
O=C(C1CCCN(S(=O)(=O)c2cccc3nsnc23)C1)N1CC=C(c2ccccc2)CC1 (stereo unspecified) | inconclusive: 1.6 nM
COc1cccc(CN(Cc2cccnc2)S(=O)(=O)c2ccc(-n3cnnn3)c(C)c2)c1 | inactive
COc1ccc(S(=O)(=O)NCCC(=O)NC(C)c2ccccc2)cc1 (stereo unspecified) | inconclusive: 1.3 nM
Cc1noc(C)c1COC(=O)COc1cccc2c1OC(C)(C)C2 | inconclusive: 1.5 nM
CCNc1ncc2nc(-c3ccccc3)c(=O)n(CCC#N)c2n1 | active: 950 nM
NS(=O)(=O)c1cc2c(cc1C(F)(F)F)NCNS2(=O)=O | inactive
Cc1cc2n(n1)SC(Nc1ccccc1)N2 (stereo unspecified) | inconclusive: 1.1 nM
CC(=O)c1cc2c(cc1NC(=O)c1cnc(C)cn1)OCO2 | inconclusive: 7.1 nM
COC(=O)N(C)CCCC1(C)C(=O)N(C)c2ccc(O)cc21 (stereo unspecified) | inconclusive: 1.1 nM
COc1ccc(Br)cc1-c1noc(-c2ccccc2)n1 | inactive
Cc1cc(-n2c(C)cc(C(=O)CSc3ncnc4ccccc34)c2C)no1 | inconclusive: 1.5 nM
COc1cccc(NC(=O)c2oc3ccccc3c2NC(=O)C2CC2)c1 | inconclusive: 3.2 nM
COc1ccc(Cl)cc1-c1n[nH]c(=S)o1 | inconclusive: 1.7 nM
CC(=O)c1c(C)n([O-])c2ccc(C)cc2[n+]1=O | inconclusive: 9.1 nM
CCOC(=O)c1c(C)[nH]c(C(=O)COC(=O)c2oc3ccc(OC)cc3c2C)c1C | inactive
O=C(O)C1CC=CCC1C(=O)NC12CC3CC(CC(C3)C1)C2 (stereo unspecified) | inconclusive: 1.9 nM
CC(=O)N1CCN(c2ccc(NCc3ccc4c(c3)OCO4)cc2)CC1 | inconclusive: 1.5 nM
O=C(c1ccncc1)N1CCC2(CCN(Cc3ccncc3)CC2)CC1 | inactive
O=C(Nc1sc2c(c1C(=O)NCc1ccco1)CCCC2)c1ccc2c(c1)OCO2 | active: 170 nM
COC(=O)CCC(=O)Nc1cccc(Cl)c1 | inactive
CC(C)OCCCNS(=O)(=O)c1ccc2c(c1)OCCO2 | inconclusive: 1.1 nM

SMILES | max dye-equivalent concentration
O=C1c2sc3nc4c(c(=O)n3c2C(=O)N1c1ccccc1)CCC4 | inconclusive: 5.9 nM
CN(C)c1nc(N)nc(Cn2ccnc2)n1 | inactive
O=C(O)c1cncc(C(=O)O)c1 | inactive
Cc1ccc(-c2nnc(SCC#N)n2N)cc1 | inconclusive: 6 nM
O=C(c1ccncc1)N1CCC2(CC1)CN(C(c1ccccc1)c1ccccc1)C2 | inactive
COc1ccccc1C(OC(=O)c1ccco1)C(=O)NC(C)(C)C (stereo unspecified) | inconclusive: 2 nM
CCOCCCNc1ccc(-c2ccccc2)nn1 | inconclusive: 1.5 nM
COCC(C)n1c(SCC(=O)N2CCCCC2)nc2ccccc2c1=O (stereo unspecified) | inconclusive: 2.2 nM
O=CN1CCN(C[C@H](O)CN2CCCCC2)CC1 | inactive
COc1cc(C2C(C(C)=O)=C(C)Nc3ncnn32)ccc1O (stereo unspecified) | inconclusive: 1.2 nM
OCCNCc1ccc(OC2CCCC2)cc1 | inconclusive: 3.3 nM
Nc1nc(SCCc2ccccc2)c2[nH]cnc2n1 | inactive
Cc1cc(NC(=O)Cn2nnc3sc4c(c3c2=O)CCCC4)no1 | inconclusive: 2.3 nM
COc1ccc2c(c1)c1ncn(CCN3CCCC3)c(=O)c1n2C | active: 670 nM
CN(C)C(=O)c1ccc(-c2nccc(Nc3ccc(F)cc3)n2)cc1 | inactive
N#Cc1c(N)nc(N2CCCC2)c(C#N)c1-c1ccc(Cl)cc1 | active: 290 nM
CCOc1ccccc1NC(=O)Cn1cnc2c(cnn2-c2ccc(C)c(C)c2)c1=O | inconclusive: 1.2 nM
CCCCOC(=O)C1=C(C)Nc2ncnn2C1c1ccc(OC)c(OC)c1OC (stereo unspecified) | inconclusive: 2.9 nM
Clc1ccc2nc(N3CCNCC3)nc(-c3ccccc3)c2c1 | active: 150 nM

In a second layout: results already given
COC(=O)N(C)CCCC1(C)C(=O)N(C)c2ccc(O)cc21 (stereo unspecified)
  max dye-equivalent concentration: inconclusive: 1.1 nM
COc1ccc(Br)cc1-c1noc(-c2ccccc2)n1
  max dye-equivalent concentration: inactive
Cc1cc(-n2c(C)cc(C(=O)CSc3ncnc4ccccc34)c2C)no1
  max dye-equivalent concentration: inconclusive: 1.5 nM
